Experimental data published in article PMC9834230, “The HAPSTR2 retrogene buffers stress signaling and resilience in mammals” (Nature Communications, 2023).
Changes are numbered by the printed parent chain. These are yes or no findings as the source states them, for the method shown. Binding seen in cells or lysates may run through a third protein. Some entries that bind do so weakly or less than the wild type. Sequences can lack the tags named with a protein.

Amino acid sequences for entries named in this document (tags omitted).
UniProt Q7Z6Z7: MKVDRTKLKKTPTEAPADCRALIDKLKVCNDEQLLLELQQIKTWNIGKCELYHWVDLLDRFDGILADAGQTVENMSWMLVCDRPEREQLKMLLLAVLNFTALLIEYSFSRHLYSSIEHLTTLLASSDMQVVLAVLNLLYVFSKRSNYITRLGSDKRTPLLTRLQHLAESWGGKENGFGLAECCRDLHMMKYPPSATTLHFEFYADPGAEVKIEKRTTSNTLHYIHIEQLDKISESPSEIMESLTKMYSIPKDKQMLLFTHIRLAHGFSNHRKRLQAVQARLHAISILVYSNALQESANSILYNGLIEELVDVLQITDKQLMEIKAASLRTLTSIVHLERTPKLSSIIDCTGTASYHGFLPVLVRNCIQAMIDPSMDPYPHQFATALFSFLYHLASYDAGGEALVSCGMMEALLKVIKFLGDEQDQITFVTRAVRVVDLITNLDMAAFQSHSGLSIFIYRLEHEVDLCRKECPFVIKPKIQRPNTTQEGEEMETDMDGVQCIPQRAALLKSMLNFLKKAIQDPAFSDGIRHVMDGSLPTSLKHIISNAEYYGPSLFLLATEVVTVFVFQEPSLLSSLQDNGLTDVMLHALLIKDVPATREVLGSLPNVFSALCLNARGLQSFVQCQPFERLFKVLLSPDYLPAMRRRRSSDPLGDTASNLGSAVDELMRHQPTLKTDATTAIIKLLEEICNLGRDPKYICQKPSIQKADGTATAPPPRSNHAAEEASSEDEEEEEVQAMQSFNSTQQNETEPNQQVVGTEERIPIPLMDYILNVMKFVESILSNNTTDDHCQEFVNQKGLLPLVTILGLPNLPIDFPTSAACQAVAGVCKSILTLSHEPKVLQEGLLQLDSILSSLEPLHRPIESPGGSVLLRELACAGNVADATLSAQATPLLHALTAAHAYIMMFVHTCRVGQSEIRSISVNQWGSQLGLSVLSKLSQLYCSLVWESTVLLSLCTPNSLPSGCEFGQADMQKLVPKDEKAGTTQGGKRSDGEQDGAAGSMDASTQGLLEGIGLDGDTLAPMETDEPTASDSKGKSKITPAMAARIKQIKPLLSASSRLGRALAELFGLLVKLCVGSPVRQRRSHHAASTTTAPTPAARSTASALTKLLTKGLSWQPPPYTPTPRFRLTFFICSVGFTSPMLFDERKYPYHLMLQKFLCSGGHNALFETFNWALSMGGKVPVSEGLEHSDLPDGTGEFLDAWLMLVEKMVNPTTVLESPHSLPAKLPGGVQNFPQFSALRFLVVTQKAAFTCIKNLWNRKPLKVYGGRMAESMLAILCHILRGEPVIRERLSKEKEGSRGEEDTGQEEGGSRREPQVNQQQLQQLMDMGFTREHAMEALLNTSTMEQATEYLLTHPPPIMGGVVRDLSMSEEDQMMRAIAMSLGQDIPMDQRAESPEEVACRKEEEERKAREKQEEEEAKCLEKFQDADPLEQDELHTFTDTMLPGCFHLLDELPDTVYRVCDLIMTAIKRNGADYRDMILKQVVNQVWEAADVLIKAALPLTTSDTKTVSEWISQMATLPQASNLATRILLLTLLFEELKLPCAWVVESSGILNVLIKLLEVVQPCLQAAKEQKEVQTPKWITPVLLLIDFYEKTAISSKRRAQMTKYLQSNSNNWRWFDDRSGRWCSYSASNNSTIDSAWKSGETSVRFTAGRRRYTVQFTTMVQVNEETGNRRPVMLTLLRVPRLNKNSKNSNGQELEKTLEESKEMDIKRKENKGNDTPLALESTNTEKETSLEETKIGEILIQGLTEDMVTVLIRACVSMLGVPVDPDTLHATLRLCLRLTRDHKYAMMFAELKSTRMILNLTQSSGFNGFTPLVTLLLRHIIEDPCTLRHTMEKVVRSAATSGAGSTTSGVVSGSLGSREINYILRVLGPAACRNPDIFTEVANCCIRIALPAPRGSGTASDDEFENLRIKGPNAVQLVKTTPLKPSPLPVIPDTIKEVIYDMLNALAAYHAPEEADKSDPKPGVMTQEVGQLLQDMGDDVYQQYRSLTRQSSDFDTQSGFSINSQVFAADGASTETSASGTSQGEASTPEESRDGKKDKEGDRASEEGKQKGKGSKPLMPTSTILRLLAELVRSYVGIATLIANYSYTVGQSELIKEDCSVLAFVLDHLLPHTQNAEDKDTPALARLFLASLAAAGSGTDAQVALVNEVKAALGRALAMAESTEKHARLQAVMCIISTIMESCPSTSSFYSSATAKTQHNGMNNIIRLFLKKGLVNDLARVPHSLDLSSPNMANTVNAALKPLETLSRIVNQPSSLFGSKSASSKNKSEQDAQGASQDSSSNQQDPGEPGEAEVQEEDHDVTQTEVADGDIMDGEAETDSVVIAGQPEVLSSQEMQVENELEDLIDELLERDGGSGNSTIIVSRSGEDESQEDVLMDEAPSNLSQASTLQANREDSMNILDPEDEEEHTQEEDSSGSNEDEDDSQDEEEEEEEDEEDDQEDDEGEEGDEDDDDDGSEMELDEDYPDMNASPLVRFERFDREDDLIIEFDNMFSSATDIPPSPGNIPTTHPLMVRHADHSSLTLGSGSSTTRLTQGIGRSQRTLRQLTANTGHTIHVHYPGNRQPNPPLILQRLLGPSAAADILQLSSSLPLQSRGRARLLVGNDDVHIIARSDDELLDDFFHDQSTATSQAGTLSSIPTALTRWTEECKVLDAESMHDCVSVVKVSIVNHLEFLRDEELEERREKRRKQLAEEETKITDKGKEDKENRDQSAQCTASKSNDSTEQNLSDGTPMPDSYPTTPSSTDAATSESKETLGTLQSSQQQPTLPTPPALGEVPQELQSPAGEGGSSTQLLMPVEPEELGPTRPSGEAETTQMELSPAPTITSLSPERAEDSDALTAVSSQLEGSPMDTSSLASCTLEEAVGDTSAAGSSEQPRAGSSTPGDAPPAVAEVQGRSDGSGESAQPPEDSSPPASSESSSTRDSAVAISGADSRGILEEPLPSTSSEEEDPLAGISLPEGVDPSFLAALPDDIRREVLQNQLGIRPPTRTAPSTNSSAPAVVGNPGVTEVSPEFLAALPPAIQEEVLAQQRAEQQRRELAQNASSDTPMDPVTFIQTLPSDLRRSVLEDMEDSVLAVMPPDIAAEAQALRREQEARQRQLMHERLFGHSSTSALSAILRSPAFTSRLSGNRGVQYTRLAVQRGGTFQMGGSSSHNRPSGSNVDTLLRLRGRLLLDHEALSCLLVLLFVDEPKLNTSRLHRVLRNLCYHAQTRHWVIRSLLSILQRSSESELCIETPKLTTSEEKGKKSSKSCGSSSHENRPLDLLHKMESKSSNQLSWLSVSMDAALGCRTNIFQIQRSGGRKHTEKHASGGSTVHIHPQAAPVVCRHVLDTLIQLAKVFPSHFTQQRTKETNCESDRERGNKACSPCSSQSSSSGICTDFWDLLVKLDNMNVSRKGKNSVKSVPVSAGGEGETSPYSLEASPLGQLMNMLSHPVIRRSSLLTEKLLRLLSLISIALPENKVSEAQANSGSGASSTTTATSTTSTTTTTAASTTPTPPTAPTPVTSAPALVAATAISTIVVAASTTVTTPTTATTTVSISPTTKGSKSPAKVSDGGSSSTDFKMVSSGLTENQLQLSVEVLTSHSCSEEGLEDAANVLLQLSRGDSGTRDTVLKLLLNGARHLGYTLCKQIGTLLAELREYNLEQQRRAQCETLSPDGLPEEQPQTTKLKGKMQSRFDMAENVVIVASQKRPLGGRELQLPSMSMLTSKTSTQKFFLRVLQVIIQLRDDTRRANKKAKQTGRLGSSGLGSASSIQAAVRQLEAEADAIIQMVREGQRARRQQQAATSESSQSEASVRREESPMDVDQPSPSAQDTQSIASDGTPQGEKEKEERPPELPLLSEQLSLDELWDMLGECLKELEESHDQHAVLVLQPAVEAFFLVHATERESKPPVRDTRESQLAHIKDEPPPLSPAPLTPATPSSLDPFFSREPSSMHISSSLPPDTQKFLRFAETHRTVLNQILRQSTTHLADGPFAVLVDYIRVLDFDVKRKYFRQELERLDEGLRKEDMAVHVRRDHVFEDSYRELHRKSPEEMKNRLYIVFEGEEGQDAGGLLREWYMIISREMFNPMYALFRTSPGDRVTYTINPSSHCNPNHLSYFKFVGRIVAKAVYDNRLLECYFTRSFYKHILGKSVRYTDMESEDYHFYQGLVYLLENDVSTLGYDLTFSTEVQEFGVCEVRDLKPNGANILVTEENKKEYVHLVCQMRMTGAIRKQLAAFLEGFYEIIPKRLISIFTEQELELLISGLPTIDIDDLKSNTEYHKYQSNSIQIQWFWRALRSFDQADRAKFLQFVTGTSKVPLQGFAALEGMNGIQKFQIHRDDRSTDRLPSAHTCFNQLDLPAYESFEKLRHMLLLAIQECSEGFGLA

B1: endogenous HAPSTR1, long isoform (protein, UniProt Q14CZ0 1-275)
chain: MEERKEEGEAEIQEHGPEHWFSKWERQCLAEAEQDEQLPPELQEEAAAAAQPEHKQQKLWHLFQNSATAVAQLYKDRVCQQPGLSLWVPFQNAATAVTNLYKESVDTHQRSFDIGIQIGYQRRNKDVLAWVKKRRRTIRREDLISFLCGKVPPPRNSRAPPRLTVVSPNRATSTETSSSVETDLQPFREAIALHGLSGAMASISVRSSTPGSPTHVSSGSNASRRRNGLHDVDLNTFISEEMALHLDNGGTRKRTSAQCGDVITDSPTHKRNRMI
B2: HAPSTR1-HA (protein, UniProt Q14CZ0 1-275)
chain: B1 chain
B3: endogenous HAPSTR1 of parental 293T cells (protein, UniProt Q14CZ0 1-275)
chain: B1 chain

Tests used:
[1] = biological target: T1, recombinant maltose-binding protein (MBP)-tagged HAPSTR2 (human); assay: pull-down; recombinant MBP-tagged bait on amylose resin; 2.5 mg protein of 293T whole cell lysate, overnight at 4 °C; wash buffer 10 mM Tris-HCl, 200 mM NaCl, 1 mM EDTA, 1 mM DTT, pH 7.5; eluted with 10 mM maltose; immunoblot; only the target purified
T1 sequence: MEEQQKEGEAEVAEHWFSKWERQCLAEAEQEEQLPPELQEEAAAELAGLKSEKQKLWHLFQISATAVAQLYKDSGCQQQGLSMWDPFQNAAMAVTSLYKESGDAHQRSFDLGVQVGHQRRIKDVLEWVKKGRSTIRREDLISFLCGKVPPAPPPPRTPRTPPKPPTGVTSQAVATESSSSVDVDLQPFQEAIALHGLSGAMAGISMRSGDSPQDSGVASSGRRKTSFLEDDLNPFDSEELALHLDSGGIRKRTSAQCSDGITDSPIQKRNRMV

[2] = biological target: T2, recombinant MBP-HAPSTR1 (human) (UniProt Q14CZ0); assay: as above
T2 sequence: B1 chain

FLAG-HAPSTR1 (human) = biological target: T3, FLAG-HAPSTR1 (human) (UniProt Q14CZ0); assay: co-IP; anti-FLAG magnetic beads, 293T cell lysates (parental or HAPSTR1-HA overexpressing), overnight at 4 °C; lysis buffer 50 mM Tris pH 7.5, 100 mM NaCl, 1% Triton, 0.2 mM EDTA, 5% glycerol; immunoblot
T3 sequence: B1 chain

[3] = biological target: T4, FLAG-tagged HAPSTR2 G116R (human); assay: as above
T4 sequence: T1 sequence with G116R

[4] = biological target: T5, FLAG-tagged HAPSTR2 (human); assay: as above
T5 sequence: T1 sequence

Molecule	binding [1]	binding [2]	binding (FLAG-HAPSTR1 (human))	binding [3]	binding [4]
HUWE1 (from UniProt Q7Z6Z7 1-4374) (enzyme)	binds	binds	binds	binds	binds
B1	binds	–	–	–	–
B2	–	–	–	–	binds
B3	–	–	–	–	binds
